Record: PubChem BioAssay AID1259405 (NCATS, 2018)

- Purpose: 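Mouse-designed siRNAs used to find CHO productivity engineering targets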 (primary screen)
- Cell system: Chinese hamster CHO-K1 ovary cells with stable secreted eGFP expression
- Reagents: single siRNA against mouse genes, 0.8 pmol siRNA per well (2 µl of 400 nM stock)
- Duration: 3 days
- Detection: 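Per-well intracellular GFP measured by laser scanning cytometry, plus viability from ATP luminescence, each relative to plate median of non-targeting control wells, in %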
- Direction: GFP, % of control: higher = more GFP per well, higher productivity
- Call rule: 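Called active when intracellular GFP, relative to negative control, is at or above 120%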
Here is an unselected part of about 50,000 reagents. Of all reagents, about 4,000 (8%) were called active. 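Mouse siRNA library applied to hamster cells; one well for each siRNA.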 Entries without a mark were called inactive. The numbers tell different reagents against one gene apart. Further read-outs or replicates are left out here.

GFP, % of control, by target and reagent
Kifc3: #1 70.5; #2 61.3
Wdr25: #1 59.1; #2 84; #3 95.2
Tjap1: #1 67.2; #2 101; #3 87.7
Serbp1: #1 166 (active); #2 148 (active); #3 77.1
Hmgcl: #1 73.1; #2 50.9; #3 180 (active)
Vmn1r195: #1 77.8; #2 91.6; #3 98.7
Hs3st3b1: #1 59.4; #2 31.1; #3 68.9
Atp5mg: #1 71.7; #2 65.3; #3 42.8
Lrrc49: #1 60.2; #2 96.5; #3 95.6
Spink2: #1 52.4; #2 62.5; #3 78.5
Pcdhga4: #1 90.7; #2 124 (active)
Mgl2: #1 68.5; #2 92.6; #3 39.7

Ordered by “GFP, % of control” (descending): 2 of the entries above.
target	reagent no.	GFP, % of control
Atp5mg	1	71.7
Atp5mg	2	65.3
